Measured values from patent publication US11535872B2, “Microbial strains and uses thereof” (priority 2017, dated 2022).
Some of these results come from one statement about several compounds together.

Test system: Y6604 (NCYC 4190)
Assay: Xylose utilisation of Y6604 in the presence of increased inhibitor concentrations
Format: cell-based, Candida tropicalis
Conditions: high inhibitor concentrations
Method: FIG. 4 show graphs illustrating xylose utilisation profiles of Y6604 (NCYC 4190) in the presence of increased inhibitor concentrations. Graphs A, B, C, D, E and F represent strain performance in the presence of increasing concentrations of vanillin (VAN), transcinnamic acid (TRANSC), hydroxyl-benzaldehyde (HBA), syringaldehyde (S), furfural (F) and hydroxyl-methyl furfural (HMF) respectively. Indicated values in the legend represent concentrations in mg/100 mL. Xylose values are the mean of two replicates in minimal media in shake flasks;
Strain Y6604 (NCYC 4190) was compared with other xylose-utilizing isolates from the gut of click beetle to assess its inhibitor tolerance and xylose to xylitol conversion. […] Despite slower Y6604 (NCYC 4190) growth in corn stover hydrolysate, xylose consumption and subsequent xylitol production was largely unaffected when compared to other isolates (FIG. 2 A, B) and increased amounts of the sugar alcohol at a comparatively higher rate of production were apparent in hydrolysates obtained from Miscanthus (FIG. 2 C, D) and wheat straw (FIG. 2 E, F). […] Having observed the enhanced efficacy of Y6604 (NCYC 4190) in hydrolysates with high inhibitor loadings, the isolate's tolerance threshold to common inhibitors by measuring xylose uptake rates (FIG. 4) was then assessed.

Compound	time to complete attenuation of the pentose
COc1cc(C=O)cc(OC)c1O [syringaldehyde]	≤ 72 h
hydroxyl-benzaldehyde	≤ 72 h
